The values that follow are results of earlier work, collected in publication PMC10052025 (Pharmaceutics, 2023).

The data set concerns OATP1B1 c. 521CC genotype. The conditions noted are these: subjects with OATP1B1 c. 521CC genotype; cited from earlier work.

With `CC(C)c1c(C(=O)Nc2ccccc2)c(-c2ccccc2)c(-c2ccc(F)cc2)n1CC[C@@H](O)C[C@@H](O)CC(=O)O` [atorvastatin], the “increased AUC, fold of the reference” value was 2.4 fold.
